Assay results published in US20220281860A1, “COMPOUNDS AND METHODS OF TREATING RNA-MEDIATED DISEASES” (Arrakis Therapeutics, Inc., priority 2016, published 2022).

Each compound was assayed on 41CAG and 17CAG sequences (assay: NMR epitope mapping (STD)). Details: both RNA constructs 41CAG and 17CAG; preliminary assignments.
Assay type: binding
`Cc1nn(-c2ccccc2)nc1CN` [HP-AC008001-E02] was tested, and the “Epitope mapping (scaled STD effect): protons in closer proximity to RNA” value (“Epitope mapping (scaled STD effect)” for short) was “aromatic protons closest to the heterocycle are in closer proximity to RNA protons”. With `OCc1cccc(-c2cccnc2)c1` [HP-AC008002-E01] the “Epitope mapping (scaled STD effect)” value was “protons of the pyridine ring are in closer proximity to RNA than the benzene ring”. `CC(O)CNCc1ccc(-c2ccccc2)o1` (stereo not shown) [HP-AT005003-C03] was tested, and the “Epitope mapping (scaled STD effect)” value was “protons of the furan moiety are in closer proximity to RNA protons than the phenyl”. For `O=C(c1ccc(Cl)cc1)N1CCN(c2ccc([N+](=O)[O-])c3ncccc23)CC1` [CPNQ], the “Epitope mapping (scaled STD effect)” value was “protons of the chlorophenyl moiety are in closer proximity to RNA than the nitroquinoline”.
